Results deposited as PubChem BioAssay AID1259425 (University of Nebraska Medical Center, 2018)
The whole screen tested about 14,000 reagents; this is an unselected part. Reagent sequences are not shown. Not given: the time to read-out.

Purpose: 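Compare each knockdown with KSR1 silencing using changes in marker transcripts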 (primary screen)
Cells: HCT116 human colon cancer cells
Knock-down reagent: siRNA pool against human genes, 50 nM siRNA
Read-out: 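mRNA of six signature genes measured together by branched-DNA assay after 50 nM siRNA pool, blank removed, divided by geometric mean of two housekeeping genes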
Direction: BNIP3L mRNA: higher = more BNIP3L transcript after knockdown; NDRG1 mRNA: higher = more NDRG1 transcript after knockdown; BNIP3 mRNA: higher = more BNIP3 transcript after knockdown; ALDOC mRNA: higher = more ALDOC transcript after knockdown; ACSL5 mRNA: higher = more ACSL5 transcript after knockdown

Target gene	BNIP3L mRNA, set 1	NDRG1 mRNA, set 1	BNIP3 mRNA, set 1	ALDOC mRNA, set 1	ACSL5 mRNA, set 1
VENTX	0.132	1.57	0.337	0.0121	0.246
CELSR3	0.247	0.854	0.418	0.0847	0.269
TRMO	0.204	0.259	0.325	0.0135	0.119
POLE2	0.163	0.314	0.254	0.0665	0.222
INSL3	0.108	0.3	0.155	0.0267	0.106
KAT2B	0.0866	0.34	0.256	0.0162	0.157
C9orf78	0.147	0.106	0.272	0.0141	0.156
TENT4B	0.108	0.117	0.384	0.0255	0.194
ADH1A	0.0762	0.163	0.144	0.0194	0.149
MYOC	0.0862	0.372	0.249	0.0141	0.153
ZBED5	0.0758	0.363	0.404	0.0249	0.181
AMY1A	0.0961	0.135	0.296	0.00863	0.17
SLC39A7	0.288	0.197	0.338	0.0526	0.127
SGK1	0.161	0.164	0.45	0.0209	0.322
DNAJC11	0.0673	0.0842	0.288	0.0287	0.121
MIGA2	0.0405	0.389	0.338	0.046	0.19
NMNAT1	0.13	0.528	0.431	0.0128	0.188
CDH10	0.0895	0.119	0.342	0.0101	0.294
BRAF	0.109	0.203	0.324	0.0145	0.342
POLG	0.0493	0.148	0.339	0.0194	0.124
TRMT2A	0.135	0.684	0.344	0.0324	0.341
SLC17A1	0.169	0.198	0.301	0.0652	0.106
BTN2A2	0.0679	0.111	0.222	0.0241	0.139
ORAI1	0.417	0.186	0.309	0.0236	0.168
NTHL1	0.122	0.196	0.283	0.0556	0.0697
SNHG12	0.164	0.478	0.291	0.0686	0.265
LZTR1	0.388	0.701	1.51	0.0787	0.611
NUCLEOLIN	0.162	0.62	0.406	0.0575	0.165
PIK3CD	0.0635	0.107	0.229	0.0314	0.127
BEST3	0.139	0.326	0.293	0.0578	0.142
PDE6C	0.126	0.649	0.318	0.0232	0.112
NOL11	0.242	2.07	0.871	0.0261	0.681
IGKC	0.0853	0.0749	0.348	0.0174	0.0638
KIAA1328	0.278	0.679	0.412	0.0876	0.338
KCNK7	0.049	0.0475	0.247	0.0379	0.0541
OCLM (retired record)	0.0991	0.105	0.225	0.0179	0.144
PTPDC1	0.0567	0.108	0.266	0.0309	0.172
SETD5	0.101	0.642	0.244	0.0453	0.205
NDUFB3	0.125	1.13	0.397	0.0278	0.382
NOL12	0.216	0.175	0.374	0.0461	0.174
PPP1R13B	0.0603	0.128	0.232	0.0179	0.129
OGDHL	0.034	0.296	0.303	0.0419	0.146
LIMS1	0.0701	0.239	0.426	0.0188	0.156
R3HDM1	0.093	0.153	0.375	0.017	0.165
TOP2B	0.105	0.067	0.272	0.0434	0.132
CABP4	0.197	0.224	0.404	0.0564	0.149
PRRG2	0.188	0.361	0.296	0.0188	0.185
ZIC2	0.0699	0.358	0.374	0.00594	0.318
LZTS3	0.157	0.151	0.24	0.0339	0.204
AHCY	0.0907	0.0219	0.43	0.0127	0.0874
CTLA4	0.0674	0.204	0.312	0.0251	0.0997
CENPC	0.182	0.298	0.426	0.0198	0.263
RNF220	0.0602	0.0271	0.282	0.0374	0.0745
FYRD1	0.428	0.347	0.365	0.0704	0.464
LGALS14	0.143	0.269	0.317	0.0385	0.19
MTAP	0.139	0.208	0.227	0.0169	0.11
TST	0.18	0.15	0.207	0.0326	0.125
HBA1	0.163	0.223	0.308	0.0278	0.152
HHIP	0.0655	0.267	0.549	0.0508	0.29
DCAF17	0.0944	0.218	0.332	0.00587	0.202
AFAP1-AS1	0.0843	0.358	0.245	0.0438	0.19
TMEM41B	0.0813	0.0882	0.28	0.00963	0.112
DYNLL1	0.0796	0.0982	0.261	0.0513	0.134

10 entries from above, reformatted.
| Target gene | BNIP3L mRNA, set 1 | NDRG1 mRNA, set 1 | BNIP3 mRNA, set 1 | ALDOC mRNA, set 1 | ACSL5 mRNA, set 1 |
| --- | --- | --- | --- | --- | --- |
| ZIC2 | 0.0699 | 0.358 | 0.374 | 0.00594 | 0.318 |
| LZTS3 | 0.157 | 0.151 | 0.24 | 0.0339 | 0.204 |
| AHCY | 0.0907 | 0.0219 | 0.43 | 0.0127 | 0.0874 |
| CTLA4 | 0.0674 | 0.204 | 0.312 | 0.0251 | 0.0997 |
| CENPC | 0.182 | 0.298 | 0.426 | 0.0198 | 0.263 |
| RNF220 | 0.0602 | 0.0271 | 0.282 | 0.0374 | 0.0745 |
| FYRD1 | 0.428 | 0.347 | 0.365 | 0.0704 | 0.464 |
| LGALS14 | 0.143 | 0.269 | 0.317 | 0.0385 | 0.19 |
| MTAP | 0.139 | 0.208 | 0.227 | 0.0169 | 0.11 |
| TST | 0.18 | 0.15 | 0.207 | 0.0326 | 0.125 |
